Assay results reported in patent US20240325544A1, “CATIONIC LIPID FOR COVALENT MODIFICATION OF PEPTIDES” (PharmalN Corporation, priority 2023, published 2024).
No constants are given. Whether binding was seen depends on the method and setting. Some binding calls cover weakened binding; strength is not graded here. Where a sequence is shown, tags or fusion partners need not be part of it.

Target: T1, Recombinant human NPRC extracellular domain - human IgG1 Fc fusion (NPRC-Fc) (human) (UniProt P17342)
T1 sequence (looked up): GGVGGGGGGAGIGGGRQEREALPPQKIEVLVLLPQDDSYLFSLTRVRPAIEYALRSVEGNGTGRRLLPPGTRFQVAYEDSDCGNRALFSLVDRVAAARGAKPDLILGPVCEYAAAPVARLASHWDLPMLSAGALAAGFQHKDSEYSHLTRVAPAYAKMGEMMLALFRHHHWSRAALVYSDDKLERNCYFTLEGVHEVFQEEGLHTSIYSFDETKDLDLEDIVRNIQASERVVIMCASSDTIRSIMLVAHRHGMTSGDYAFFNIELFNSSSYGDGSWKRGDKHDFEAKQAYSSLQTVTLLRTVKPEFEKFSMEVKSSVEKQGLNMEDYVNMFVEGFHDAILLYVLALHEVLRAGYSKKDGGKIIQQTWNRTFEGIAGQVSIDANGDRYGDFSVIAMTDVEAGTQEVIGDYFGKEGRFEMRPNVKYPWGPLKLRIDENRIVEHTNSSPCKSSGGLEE
Assay: Fluorescence polarization, 5 nM CNP-F* with 50 nM human NPRC

GLSKGCFGLKLDRIGSMSGLGC (N-terminal 5(6)-Carboxyfluorescein (F*); disulfide bond formed (cyclic peptide)) [CNP-F* probe (C-type natriuretic peptide bound to 5(6)-Carboxyfluorescein)]
binding: binds
